The target of assay [1] is T1, biotinylated full-length HER2 (human, UniProt P04626 23-652, limits assumed, biotinylated (site not stated)).
T1 construct: Immobilised on the SPR chip; also called bio-HER2; Human Epidermal Growth Factor Receptor 2
In words: SPR single trace, biotinylated HER2 on chip, analyte 500 nM.

Assay [2] addresses T1, biotinylated full-length HER2. In words: SPR, single trace, 500 nM analyte over biotinylated HER2 on the chip, double-referenced.

These are yes or no findings as the source states them, for the method shown. Some results given as binding are weak or reduced against the parent protein; the word gives no strength.

B1: DARPin11-GSGSC-DTPA (designed binder)
chain: DLGIKLLFAAAKGQDDEVRELLKAGADVNAKDFQGVTPLHIAAQSGHLEIVEVLLKAGADVNAKDVTGDTPLHLAAQHGHLEIVEVLLKAGADVNAQDERGWTPADLAADWGHEDIAEVLQKAAGSGSC
modifications: maleimide-DTPA coupled to the C-terminal Cys of the GSGSC tag
notes: Parent; His-TEV tag cleaved off; possible N-terminal GS not included; also called construct 11; DTPA coupled parental DARPin11
As for B1, the binding result in assay [1] is given as “binds”.

B2: DARPin06-GSGSC-DTPA (designed binder)
chain: DLGKKLLEAARAGQDDEVRELLKAGADVNAKDEYGLTPLYLATAHGHLEIVEVLLKAGADVNAVDAIGFTPLHLAAFIGHLEIAEVLLKAGADVNAQDKFGKTPADIAAGAGNEDIAEVLQKAAGSGSC
modifications: maleimide-DTPA coupled to the C-terminal Cys of the GSGSC tag
notes: Parent; also called construct 6; DTPA coupled parental DARPin06
As for B2, the binding result in assay [1] was “binds”.

B3: parental DARPin06 (designed binder)
chain: DLGKKLLEAARAGQDDEVRELLKAGADVNAKDEYGLTPLYLATAHGHLEIVEVLLKAGADVNAVDAIGFTPLHLAAFIGHLEIAEVLLKAGADVNAQDKFGKTPADIAAGAGNEDIAEVLQKAA
Consider B3, for which the binding result in assay [1] is “binds”.

B4: parental DARPin11 (designed binder)
chain: DLGIKLLFAAAKGQDDEVRELLKAGADVNAKDFQGVTPLHIAAQSGHLEIVEVLLKAGADVNAKDVTGDTPLHLAAQHGHLEIVEVLLKAGADVNAQDERGWTPADLAADWGHEDIAEVLQKAA
Consider B4, for which the binding result in assay [1] and in assay [2] was “binds” each time.

Values taken from patent US20240132546A1 (Molecular Partners, published 2024).
